Amino acid sequences for entries named in this document (tags omitted). A change or cut given only in a name is not applied to a line headed by its entry.
UniProt P61517: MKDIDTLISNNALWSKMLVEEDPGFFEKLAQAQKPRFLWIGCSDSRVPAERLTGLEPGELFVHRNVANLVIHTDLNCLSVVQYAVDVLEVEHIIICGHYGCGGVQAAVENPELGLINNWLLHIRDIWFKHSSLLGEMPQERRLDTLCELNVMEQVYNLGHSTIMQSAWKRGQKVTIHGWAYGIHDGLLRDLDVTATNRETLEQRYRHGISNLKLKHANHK

According to paper PMC7312386, “The Effect of Substituted Benzene-Sulfonamides and Clinically Licensed Drugs on the Catalytic Activity of CynT2, a Carbonic Anhydrase Crucial for Escherichia coli Life Cycle” (International Journal of Molecular Sciences, 2020):

Biological target: T1, CynT2 (Escherichia coli, UniProt P61517)
T1 construct: gene can; oligomer not determined (dimer or tetramer stated for bacterial beta-CAs in general)
Test: stopped-flow CO2 hydrase assay, phenol red
Format: biochemical

- Ki: 629 nM
SMILES: CCN[C@H]1C[C@H](C)S(=O)(=O)c2sc(S(N)(=O)=O)cc21 [DZA, Dorzolamide]
